In PubChem BioAssay AID248 (DTP/NCI, 2004):
The list shows only some results of the screen, not a fair sample: it gathers tests that were run many times, whatever their T/C, doses with no T/C, and many T/C values between a quarter and a half above the control. Further doses and runs are listed elsewhere. T/C is the treated group as % of the vehicle group. Some doses have a count of surviving animals in place of a T/C: the source holds a T/C of zero for them, seemingly a mark for toxic or unscored doses. Some survivor counts are full or nearly so, which does not show that the dose was tolerated: the source hardly ever lists a survival T/C far under the control, and the zero likely stands for such cases as well. Counts of survivors are from the toxicity check (mostly the fifth day) where no day follows; animals may have died later. Schedules are NCI's codes, read here as Q, the interval in days (D) or hours (H), X, the number of doses. Some schedules carry Z or #; the key to these is not given. Where survival is the endpoint, the PubChem record calls one and a half times the control and up active, and a quarter to a half above the control has no call in these data; cut-offs in other NCI protocols can differ. Some entries were tested several times; their values stand side by side, smallest first. Signs of the kind (2×) say how often a value occurs here. Some T/C values are followed by the survivors on the day toxicity was checked, most often the fifth; without a count, all were alive then.

System: L1210 leukemia ip in BDF1 mice, survival T/C
Assay: NCI In Vivo Anticancer Drug Screen. Data for tumor model L1210 Leukemia (intraperitoneal) in B6D2F1 (BDF1) mice
Details: T/C endpoint: mean survival time, higher T/C = longer survival
[1] = dose: 90.0 mg/kg/injection, schedule: Q## X Z (ip), vehicle: saline

O=P1(N(CCCl)CCCl)NCCCO1 (centres undefined)
survivor count (dose: 75.0 mg/kg/injection, schedule: Q01DX Z (ip), vehicle: methylcellulose (MC)): 6 of 6
survivor count (dose: 78.8 mg/kg/injection, schedule: Q01DX010 (ip), vehicle: saline): 10 of 10
T/C (dose: 80.0 mg/kg/injection, schedule: Q01DX001 (ip), vehicle: saline): 139 % of control
T/C (dose: 86.0 mg/kg/injection, schedule: Q01DX001 (ip), vehicle: saline): 147 % of control
T/C (dose: 89.0 mg/kg/injection, schedule: Q01DX001 (ip), vehicle: saline, evaluated on day 5): 142 % of control
T/C (dose: 89.0 mg/kg/injection, schedule: Q01DX001 (ip), vehicle: saline, evaluated on day 45): 142 % of control
T/C (dose: 90.0 mg/kg/injection, schedule: Q01DX010 (ip), vehicle: saline): 97, 97 [5 of 6 alive], 113, 114 % of control
T/C (dose: 90.0 mg/kg/injection, schedule: Q01DX Z (ip), vehicle: saline): 130 and 143 % of control
T/C (dose: 90.0 mg/kg/injection, schedule: Q02DX010 (ip), vehicle: saline): 132 % of control
T/C [1]: 133 % of control
survivor count [1]: 9 of 10
T/C (dose: 100.0 mg/kg/injection, schedule: Q01DX001 (ip), vehicle: saline, evaluated on day 5): 139 and 147 % of control
T/C (dose: 100.0 mg/kg/injection, schedule: Q01DX001 (ip), vehicle: saline, evaluated on day 7): 161 % of control
T/C (dose: 100.0 mg/kg/injection, schedule: Q01DX001 (ip), vehicle: saline, evaluated on day 30): 126, 136 (2×), 137, 138, 143, 147, 153, 155, 159, 164, 234, 247 % of control
T/C (dose: 100.0 mg/kg/injection, schedule: Q01DX001 (ip), vehicle: saline, evaluated on day 45): 136 and 148 % of control
T/C (dose: 100.0 mg/kg/injection, schedule: Q01DX001 (ip), vehicle: saline, evaluated on day 60): 88, 147, 148, 169, 223 % of control
T/C (dose: 100.0 mg/kg/injection, schedule: Q01DX001 (ip), vehicle: saline, evaluated on day 63): 165 % of control
T/C (dose: 100.0 mg/kg/injection, schedule: Q01DX001 (ip), vehicle: saline, evaluated on day 64): 161 % of control
T/C (dose: 100.0 mg/kg/injection, schedule: Q01DX001 (ip), vehicle: saline, run until all animals had died): 136 [3 of 4 alive], 141, 145, 167, 191 % of control
T/C (dose: 100.0 mg/kg/injection, schedule: Q01DX Z (ip), vehicle: saline): 89, 91, 116, 120, 132 % of control
T/C (dose: 100.0 mg/kg/injection, schedule: Q02DX010 (ip), vehicle: carboxymethylcellulose (CMC)): 115, 134, 150, 166, 168 % of control
T/C (dose: 100.0 mg/kg/injection, schedule: Q02DX010 (ip), vehicle: other): 130 % of control
T/C (dose: 100.0 mg/kg/injection, schedule: Q04DX002 (ip), vehicle: saline): 140 % of control
survivor count (dose: 100.0 mg/kg/injection, schedule: Q#A X Z (ip), vehicle: saline): 6 of 6
T/C (dose: 101.0 mg/kg/injection, schedule: Q01DX001 (ip), vehicle: saline): 148 % of control
T/C (dose: 104.0 mg/kg/injection, schedule: Q01DX001 (ip), vehicle: saline): 126 % of control
T/C (dose: 108.0 mg/kg/injection, schedule: Q01DX001 (ip), vehicle: saline): 148 % of control
T/C (dose: 117.0 mg/kg/injection, schedule: Q04DX002 (ip), vehicle: saline): 170, 174, 185, 192 % of control
T/C (dose: 125.0 mg/kg/injection, schedule: Q01DX001 (ip), vehicle: saline, evaluated on day 30): 133 and 208 % of control
T/C (dose: 125.0 mg/kg/injection, schedule: Q01DX001 (ip), vehicle: saline, evaluated on day 35): 178 % of control
T/C (dose: 125.0 mg/kg/injection, schedule: Q01DX001 (ip), vehicle: saline, evaluated on day 38): 130 % of control [5 of 6 alive]
T/C (dose: 133.0 mg/kg/injection, schedule: Q01DX001 (ip), vehicle: saline, evaluated on day 5): 222 % of control
T/C (dose: 133.0 mg/kg/injection, schedule: Q01DX001 (ip), vehicle: saline, evaluated on day 45): 165, 176, 222 % of control
T/C (dose: 133.0 mg/kg/injection, schedule: Q01DX001 (ip), vehicle: saline, evaluated on day 60): 215 % of control
survivor count (dose: 135.0 mg/kg/injection, schedule: Q## X006 (ip), vehicle: saline): 10 of 10
T/C (dose: 150.0 mg/kg/injection, schedule: Q01DX001 (ip), vehicle: saline, evaluated on day 5): 158 % of control
T/C (dose: 150.0 mg/kg/injection, schedule: Q01DX001 (ip), vehicle: saline, evaluated on day 20): 169 % of control
T/C (dose: 150.0 mg/kg/injection, schedule: Q01DX001 (ip), vehicle: saline, evaluated on day 30): 99, 152, 157, 176, 192, 205, 221, 225, 232, 233, 248, 263, 280, 312 % of control
T/C (dose: 150.0 mg/kg/injection, schedule: Q01DX001 (ip), vehicle: saline, evaluated on day 45): 158 and 167 % of control
T/C (dose: 150.0 mg/kg/injection, schedule: Q01DX001 (ip), vehicle: saline, evaluated on day 60): 146, 172, 256 % of control
T/C (dose: 150.0 mg/kg/injection, schedule: Q01DX001 (ip), vehicle: saline, run until all animals had died): 157 and 201 % of control
T/C (dose: 150.0 mg/kg/injection, schedule: Q01DX001 (ip), vehicle: water, evaluated on day 4): 179 and 340 % of control
T/C (dose: 150.0 mg/kg/injection, schedule: Q01DX001 (ip), vehicle: water, evaluated on day 5): 164, 256, 286 % of control
T/C (dose: 150.0 mg/kg/injection, schedule: Q01DX001 (ip), vehicle: water, evaluated on day 30): 162 and 340 % of control
